Measured values reported in patent US20030190687A1 (UAB RESEARCH FOUNDATION, published 2003).
Results are given in words; binding and its absence hold for the method and conditions named. A result given as binding can be weak or reduced; the word gives no strength.

Protein sequences, listed by entry. Tags and fused reporters are not part of them. Lines headed by an entry give the natural chain unless they say otherwise; changes in a name come on top.
UniProt Q29615: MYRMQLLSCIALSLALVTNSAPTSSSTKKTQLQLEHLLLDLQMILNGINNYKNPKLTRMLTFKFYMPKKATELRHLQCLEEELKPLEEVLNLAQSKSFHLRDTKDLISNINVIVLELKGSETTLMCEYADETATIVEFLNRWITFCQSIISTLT

Biological target: cynomolgus monkey DR5 on activated lymphocytes (cynomolgus monkey) (UniProt Q29615)
Experiment: flow cytometry on activated cynomolgus monkey lymphocytes, 0.5-10 µg/ml TRA-8

B1: anti-human DR5 monoclonal antibody TRA-8 (mouse-mouse hybridoma TRA-8, ATCC PTA-1428) (antibody, mouse IgG1, kappa, V domains shown)
VH: EVMLVESGGGLVKPGGSLKLSCAASGFTFSSYVMSWVRQTPEKRLEWVATISSGGSYTYYPDSVKGRFTISRDNAKNTLYLQMSSLRSEDTAMYYCARRGDSMITTDYWGQGTTLTVSS
VL: DIVMTQSHKFMSTSVGDRVSITCKASQDVGTAVAWYQQKPGQSPKLLIYWASTRHTGVPDRFTGSGSGTDFTLTISNVQSEDLADYFCQQYSSYRTFGGGTKLEIKR
notes: also called monoclonal anti-DR5 antibody (clone: TRA-8); TRA-8 antibody
For B1, the binding was “binds”.
